Experiment [1] deals with endogenous IQGAP1 (IQ motif-containing GTPase-activating protein 1) (human (endogenous in HEK-293)) (UniProt P46940). The experiment is described as follows: co-IP; endogenous IQGAP1 immunoprecipitated with anti-IQGAP1 polyclonal antibodies and protein A-Sepharose from lysates of transfected HEK-293 cells (50 mM Tris-HCl pH 7.4, 150 mM NaCl, 1% Triton X-100), 3 h at 4 °C; blot with anti-GFP; nonimmune rabbit serum as control.

The chains behind the UniProt entries cited, without tags or fusion partners. Where a name states a change or a piece, a line headed by the entry shows the natural chain unless it says otherwise. A line that says so, or that is headed by a name, gives the form on record, which may keep a tag or linker.
UniProt P46940: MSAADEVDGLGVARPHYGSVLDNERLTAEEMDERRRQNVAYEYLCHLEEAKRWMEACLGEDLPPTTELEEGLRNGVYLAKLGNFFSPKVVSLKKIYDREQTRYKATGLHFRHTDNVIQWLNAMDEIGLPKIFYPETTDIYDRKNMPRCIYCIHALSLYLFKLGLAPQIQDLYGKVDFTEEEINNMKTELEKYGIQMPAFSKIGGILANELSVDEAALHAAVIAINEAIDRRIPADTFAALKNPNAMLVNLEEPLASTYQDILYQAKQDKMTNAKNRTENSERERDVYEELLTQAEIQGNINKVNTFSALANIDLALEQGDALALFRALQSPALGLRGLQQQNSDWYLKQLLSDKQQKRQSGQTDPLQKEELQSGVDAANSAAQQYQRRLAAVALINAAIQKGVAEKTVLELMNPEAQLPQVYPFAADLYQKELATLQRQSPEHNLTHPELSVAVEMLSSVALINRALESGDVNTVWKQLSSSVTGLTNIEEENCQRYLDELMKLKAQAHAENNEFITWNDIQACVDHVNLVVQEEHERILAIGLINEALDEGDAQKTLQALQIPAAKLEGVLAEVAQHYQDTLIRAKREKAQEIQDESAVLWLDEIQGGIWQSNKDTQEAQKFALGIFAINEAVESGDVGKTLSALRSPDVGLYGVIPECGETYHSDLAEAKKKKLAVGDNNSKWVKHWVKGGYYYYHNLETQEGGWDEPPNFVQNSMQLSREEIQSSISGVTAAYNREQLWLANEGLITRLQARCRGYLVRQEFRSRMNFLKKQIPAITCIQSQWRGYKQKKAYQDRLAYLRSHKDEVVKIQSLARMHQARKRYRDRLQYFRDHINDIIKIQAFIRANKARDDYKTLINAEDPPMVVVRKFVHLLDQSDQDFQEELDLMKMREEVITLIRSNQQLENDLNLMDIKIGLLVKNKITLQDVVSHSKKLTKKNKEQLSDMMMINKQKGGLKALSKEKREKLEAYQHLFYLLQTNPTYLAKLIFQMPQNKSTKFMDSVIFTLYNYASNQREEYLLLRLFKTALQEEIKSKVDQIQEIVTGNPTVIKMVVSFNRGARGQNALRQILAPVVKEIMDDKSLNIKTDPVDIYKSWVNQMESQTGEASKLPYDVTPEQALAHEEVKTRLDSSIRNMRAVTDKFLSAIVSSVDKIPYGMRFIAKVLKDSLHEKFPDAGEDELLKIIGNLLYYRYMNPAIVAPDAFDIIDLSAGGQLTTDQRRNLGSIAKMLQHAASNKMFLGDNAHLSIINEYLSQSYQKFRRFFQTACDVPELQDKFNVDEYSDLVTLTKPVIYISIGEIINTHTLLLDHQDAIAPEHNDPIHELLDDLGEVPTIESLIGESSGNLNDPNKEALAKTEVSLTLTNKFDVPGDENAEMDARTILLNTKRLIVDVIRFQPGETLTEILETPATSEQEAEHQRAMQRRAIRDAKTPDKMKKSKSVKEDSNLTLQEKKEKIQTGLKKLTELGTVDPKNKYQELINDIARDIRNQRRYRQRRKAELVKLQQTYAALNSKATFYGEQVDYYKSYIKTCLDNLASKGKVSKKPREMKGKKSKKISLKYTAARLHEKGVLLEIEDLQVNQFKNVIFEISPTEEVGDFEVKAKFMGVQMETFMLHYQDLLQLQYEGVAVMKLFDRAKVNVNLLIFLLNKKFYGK
IQGAP1Δ746-860, biotinylated-lysine-labelled TNT product (P46940, form named): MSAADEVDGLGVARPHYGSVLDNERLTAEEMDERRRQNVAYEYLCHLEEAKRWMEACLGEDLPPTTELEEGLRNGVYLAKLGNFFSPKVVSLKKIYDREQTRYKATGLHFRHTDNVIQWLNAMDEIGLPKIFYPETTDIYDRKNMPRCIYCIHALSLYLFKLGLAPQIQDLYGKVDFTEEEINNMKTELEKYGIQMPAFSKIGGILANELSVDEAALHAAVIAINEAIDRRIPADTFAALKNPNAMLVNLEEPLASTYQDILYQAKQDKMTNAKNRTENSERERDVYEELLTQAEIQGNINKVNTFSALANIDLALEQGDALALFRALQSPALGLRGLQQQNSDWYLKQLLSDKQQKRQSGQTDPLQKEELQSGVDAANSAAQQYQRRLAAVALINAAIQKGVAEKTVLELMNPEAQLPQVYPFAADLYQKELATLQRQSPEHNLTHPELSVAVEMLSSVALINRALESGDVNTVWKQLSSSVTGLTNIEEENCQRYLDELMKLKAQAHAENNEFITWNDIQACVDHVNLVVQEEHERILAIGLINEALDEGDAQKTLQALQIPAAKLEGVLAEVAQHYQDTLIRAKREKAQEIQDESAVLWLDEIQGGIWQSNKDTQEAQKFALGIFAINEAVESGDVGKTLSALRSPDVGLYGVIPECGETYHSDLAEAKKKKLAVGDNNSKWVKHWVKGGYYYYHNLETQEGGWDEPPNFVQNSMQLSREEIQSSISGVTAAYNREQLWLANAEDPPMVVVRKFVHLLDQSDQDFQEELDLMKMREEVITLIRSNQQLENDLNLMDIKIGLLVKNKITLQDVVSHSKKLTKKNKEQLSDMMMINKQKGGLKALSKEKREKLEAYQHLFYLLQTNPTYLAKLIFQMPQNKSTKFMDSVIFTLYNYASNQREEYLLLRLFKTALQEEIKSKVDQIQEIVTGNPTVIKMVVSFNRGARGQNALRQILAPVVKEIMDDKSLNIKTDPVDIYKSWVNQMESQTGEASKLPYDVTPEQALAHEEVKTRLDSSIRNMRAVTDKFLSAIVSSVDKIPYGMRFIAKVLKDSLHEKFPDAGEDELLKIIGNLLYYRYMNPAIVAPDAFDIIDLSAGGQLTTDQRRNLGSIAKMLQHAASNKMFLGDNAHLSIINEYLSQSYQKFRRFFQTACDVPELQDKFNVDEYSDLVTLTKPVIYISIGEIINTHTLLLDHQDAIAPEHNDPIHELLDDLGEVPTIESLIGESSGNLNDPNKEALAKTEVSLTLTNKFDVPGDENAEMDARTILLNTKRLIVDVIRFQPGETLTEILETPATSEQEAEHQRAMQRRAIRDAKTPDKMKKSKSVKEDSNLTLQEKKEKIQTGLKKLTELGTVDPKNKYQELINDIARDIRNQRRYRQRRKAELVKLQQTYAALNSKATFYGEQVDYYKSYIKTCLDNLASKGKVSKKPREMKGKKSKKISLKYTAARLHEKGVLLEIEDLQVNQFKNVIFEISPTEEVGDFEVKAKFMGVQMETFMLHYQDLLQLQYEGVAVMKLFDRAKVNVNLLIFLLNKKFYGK
UniProt Q13131: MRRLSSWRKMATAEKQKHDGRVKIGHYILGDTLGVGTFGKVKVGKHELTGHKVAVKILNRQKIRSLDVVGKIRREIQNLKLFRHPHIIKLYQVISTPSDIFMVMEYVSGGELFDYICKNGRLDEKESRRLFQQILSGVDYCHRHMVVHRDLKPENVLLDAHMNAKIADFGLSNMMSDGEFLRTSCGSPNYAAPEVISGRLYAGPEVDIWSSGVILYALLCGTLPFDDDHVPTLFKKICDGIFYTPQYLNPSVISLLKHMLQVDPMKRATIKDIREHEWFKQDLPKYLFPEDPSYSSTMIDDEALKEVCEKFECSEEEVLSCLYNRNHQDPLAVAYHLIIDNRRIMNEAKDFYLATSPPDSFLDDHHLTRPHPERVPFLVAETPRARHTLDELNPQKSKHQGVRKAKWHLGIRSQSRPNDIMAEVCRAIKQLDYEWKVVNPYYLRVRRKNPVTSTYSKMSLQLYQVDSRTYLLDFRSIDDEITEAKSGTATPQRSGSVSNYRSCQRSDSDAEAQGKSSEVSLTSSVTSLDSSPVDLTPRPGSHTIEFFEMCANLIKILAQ
UniProt Q96RR4: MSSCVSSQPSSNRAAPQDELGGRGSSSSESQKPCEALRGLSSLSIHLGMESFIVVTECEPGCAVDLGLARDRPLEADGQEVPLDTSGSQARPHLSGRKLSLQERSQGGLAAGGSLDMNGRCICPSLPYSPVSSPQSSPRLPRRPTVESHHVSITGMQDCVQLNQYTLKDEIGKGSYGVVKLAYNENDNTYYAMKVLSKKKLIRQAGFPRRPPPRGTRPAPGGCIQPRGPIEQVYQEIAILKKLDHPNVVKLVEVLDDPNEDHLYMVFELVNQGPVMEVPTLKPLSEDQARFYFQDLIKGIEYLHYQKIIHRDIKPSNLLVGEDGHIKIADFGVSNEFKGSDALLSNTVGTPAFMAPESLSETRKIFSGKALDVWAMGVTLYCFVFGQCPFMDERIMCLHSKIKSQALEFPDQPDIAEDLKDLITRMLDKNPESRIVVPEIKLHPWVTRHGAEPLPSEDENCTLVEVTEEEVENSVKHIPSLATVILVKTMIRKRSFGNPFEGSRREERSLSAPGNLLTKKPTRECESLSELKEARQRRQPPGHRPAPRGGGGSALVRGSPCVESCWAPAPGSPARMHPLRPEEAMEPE

The target in experiment [2] is GST-AMPKα1 (UniProt Q13131). The experiment is described as follows: pull-down; [35S]methionine-labelled TNT products of IQGAP1 incubated with GST proteins for 3 h at 4 °C, glutathione-Sepharose, five washes with lysis buffer, SDS-PAGE and autoradiography; only the target purified.
Experiment [3] deals with GST-CaMKK2 (UniProt Q96RR4). The experiment is described as above.
Experiment [4] has as its target GST-AMPKα1 (UniProt Q13131). The experiment is described as follows: pull-down; biotinylated-lysine-labelled TNT products of IQGAP1 incubated with GST proteins for 3 h at 4 °C, pulled down, blot with IRDye-conjugated streptavidin; only the target purified.
Experiment [5] concerns the target GST-CaMKK2 (UniProt Q96RR4). The experiment is described as above.
Experiment [6] has as its target GFP-CaMKK2 (GFP-tagged Ca2+/calmodulin-dependent protein kinase kinase 2) (UniProt Q96RR4). The experiment is described as follows: co-IP; GFP-tagged proteins immunoprecipitated with GFP-Trap Agarose from lysates of transfected HEK-293 cells, 3 h; blot with anti-IQGAP1.

No constants are given. Whether binding was seen depends on the method and setting. In cells and extracts the contact can be indirect. Binding calls can cover weak binding; strength is not graded here.

With “GFP-CaMKK2 (GFP-tagged Ca2+/calmodulin-dependent protein kinase kinase 2) (from UniProt Q96RR4-3)”, the binding result in experiment [1] was “binds”. Consider “IQGAP1 C-terminal half (amino acids 864-1657) (from UniProt P46940 864-1657) (domain or fragment)”, for which the binding entry in the experiment with GST-AMPKα1 [2] and with GST-CaMKK2 [3] was “no binding” in each case. With “IQGAP1 IQ domain (amino acids 717-916) (from UniProt P46940 717-916) (domain or fragment)”, the binding result with GST-AMPKα1 [2] and with GST-CaMKK2 [3] was “binds” each time.

For the substance “IQGAP1 N-terminal half (amino acids 2-863) (from UniProt P46940 2-863) (domain or fragment)”, the binding entry with GST-AMPKα1 [2] and with GST-CaMKK2 [3] was “binds” each time. As to “IQGAP1Δ746-860, biotinylated-lysine-labelled TNT product (from UniProt P46940)”, the binding entry with GST-AMPKα1 [4] and with GST-CaMKK2 [5] was “no binding” each time. In the case of “endogenous IQGAP1 (IQ motif-containing GTPase-activating protein 1) (from UniProt P46940 1-1657)”, in experiment [6], the binding result is reported as “binds”. “full-length IQGAP1, [35S]methionine-labelled TNT product (from UniProt P46940 2-1657)”: the binding result in the experiment with GST-AMPKα1 [2] and in the experiment with GST-CaMKK2 [3] was “binds” in each case. In the case of “full-length IQGAP1, biotinylated-lysine-labelled TNT product (from UniProt P46940 2-1657)”, the binding result in the experiment with GST-AMPKα1 [4] and with GST-CaMKK2 [5] was “binds” throughout.

Source of the values: publication PMC7948462.
